Data as given in PubChem BioAssay AID1508597 (Cure First, 2020).
Test: 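Survival screen with siRNA in ovarian cancer cells derived from patients, with or without rucaparib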 (primary screen). System: human ovarian carcinoma lines grown from tumours: OCI-P5x (papillary serous) and OCI-C5x (clear cell). Reagents: siRNA pool against human genes, 1.25 pmol siRNA per well. Time to read-out: 72 h or 96 h, depending on the cell culture. Conditions: rucaparib 20 µM (about IC30) or vehicle, present until read-out. Rucaparib or vehicle: Vehicle. Cell line: OCI-P5x (serous). Measured: 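ATP luminescence measured at 72 or 96 h according to the culture, then normalised and expressed as percent viability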. Direction: viability, normalised: higher = more viable cells remaining. Hit rule: 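Active when normalised viability falls below 80 percent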. Calls: active = viability under 80%; inactive = viability 80% or more.
This is a random part of the about 2,100 reagents, in one setting of the screen. 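Calls flag viability under 80% in either arm, not effects specific to rucaparib; the reference for percent is not stated.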 A reagent listed more than once was tested more than once; the source does not tell the runs apart. No sequences are given here. Not given: the 100% reference.

target	technical replicate	viability, normalised (%)	activity call
ENPP7	1	57.5	active
ENPP7	2	62.8	active
ENPP7	3	82.9	inactive
GRK1	1	75.8	active
GRK1	1	122	inactive
GRK1	1	72.1	active
GRK1	2	92.9	inactive
GRK1	2	78.2	active
GRK1	2	72.2	active
GRK1	3	77.4	active
GRK1	3	81.1	inactive
GRK1	3	101	inactive
PAN3	1	86.4	inactive
PAN3	2	77.1	active
PAN3	3	88.2	inactive

Called active, of those listed so far:
target	technical replicate	viability, normalised (%)	activity call
ENPP7	1	57.5	active
ENPP7	2	62.8	active
GRK1	1	75.8	active
GRK1	1	72.1	active
GRK1	2	78.2	active
GRK1	2	72.2	active
GRK1	3	77.4	active
PAN3	2	77.1	active

Continued:
target	technical replicate	viability, normalised (%)	activity call
ATRIP	1	34.5	active
ATRIP	2	45.2	active
ATRIP	3	53.6	active
AKT3	1	99.3	inactive
AKT3	2	106	inactive
AKT3	3	101	inactive
ERN1	1	68.2	active
ERN1	2	54.1	active
ERN1	3	79.3	active
